Measured values published in publication doi:10.1101/2023.11.13.566904.
These are yes or no findings as the source states them, for the method shown. Some binding calls cover weakened binding; strength is not graded here. For some of these results: Tags and fused reporters may be left off the sequences shown.

How the values were obtained:
Assay in all cases: AraTM transcriptional reporter assay
[1] = molecular target: p75^NTR TMD-AraTM chimera (MBP - p75^NTR transmembrane domain - AraC), wild type (human)
[2] = molecular target: p75^NTR TMD-AraTM chimera, I252A mutant (human)
[3] = molecular target: p75^NTR TMD-AraTM chimera, P253G mutant (human)
[4] = molecular target: p75^NTR TMD-AraTM chimera, V254A mutant (human)

**Q.** With NLIPVYCSILAAVVVGLVAYIAFKRW (domain or fragment) [p75^NTR TMD-AraTM chimera (MBP - p75^NTR transmembrane domain - AraC), wild type] as the binder, how does the binding [1] read?
**A.** Its binding is “binds”.

**Q.** Which binding [2] does the source give for NLAPVYCSILAAVVVGLVAYIAFKRW (domain or fragment) [p75^NTR TMD-AraTM chimera, I252A mutant] here?
**A.** Its binding is “binds”.

**Q.** NLIGVYCSILAAVVVGLVAYIAFKRW (domain or fragment) [p75^NTR TMD-AraTM chimera, P253G mutant] was tested. Which binding [3] did it give?
**A.** Its binding is “binds”.

**Q.** Which binding [4] does the source give for NLIPAYCSILAAVVVGLVAYIAFKRW (domain or fragment) [p75^NTR TMD-AraTM chimera, V254A mutant] here?
**A.** The binding was “binds”.
